In patent US20260151519A1:
These are yes or no findings as the source states them, for the method shown. Some results given as binding are weak or reduced against the parent protein; the word gives no strength.

T1: Murine Nectin-4 (mouse) (UniProt Q8R007)
T1 sequence: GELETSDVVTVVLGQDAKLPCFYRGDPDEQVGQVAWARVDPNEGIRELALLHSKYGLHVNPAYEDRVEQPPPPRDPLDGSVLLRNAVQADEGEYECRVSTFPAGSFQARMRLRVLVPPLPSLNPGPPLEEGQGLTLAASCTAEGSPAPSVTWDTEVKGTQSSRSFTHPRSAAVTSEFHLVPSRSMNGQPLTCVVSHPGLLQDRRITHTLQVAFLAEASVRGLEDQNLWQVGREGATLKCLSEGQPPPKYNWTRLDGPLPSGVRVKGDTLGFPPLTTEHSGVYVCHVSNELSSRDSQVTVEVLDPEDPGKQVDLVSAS


Assays:
[1] = target: Human Nectin-4 expressed on cells (human) (UniProt Q96NY8); test: DELFIA whole-cell assay
Murine Nectin-4 (mouse) [2] = target: T1, Murine Nectin-4 (mouse); test: SPR (Biacore), Nectin-4 amine-coupled to the chip, miniprotein flowed as analyte, 1:1 binding model, 25 C
Human Nectin-4 (human) [3] = target: Human Nectin-4 (human) (UniProt Q96NY8); test: as above
Murine Nectin-4 (mouse) [4] = target: T1, Murine Nectin-4 (mouse); test: SPR sensorgrams
Human Nectin-4 (human) [5] = target: Human Nectin-4 (human) (UniProt Q96NY8); test: SPR sensorgrams
Murine Nectin-4 (mouse) [6] = target: T1, Murine Nectin-4 (mouse); test: SPR (Biacore), Nectin-4 amine-coupled to the chip, miniprotein conjugate flowed as analyte, 1:1 binding model, 25 C
Human Nectin-4 (human) [7] = target: Human Nectin-4 (human) (UniProt Q96NY8); test: as above
Murine Nectin-4 (mouse) [8] = target: T1, Murine Nectin-4 (mouse); test: SPR (Biacore), Nectin-4 on the chip, 138La-DOTA-PEG4 miniprotein conjugate flowed as analyte, 1:1 binding model, 25 C
Human Nectin-4 (human) [9] = target: Human Nectin-4 (human) (UniProt Q96NY8); test: as above

| binding [1] | binding (Murine Nectin-4 (mouse) [4]) | binding (Human Nectin-4 (human) [5]) | Binder | other results |
| --- | --- | --- | --- | --- |
| binds | – | – | CEYDEEFFTALKRLRGGDICQYIQAKFQYLPALCIEEILDNLGCS (designed binder, N-term Biotin-PEG4; Kme at 12; Kme3 at 26) [C302] | – |
| binds | – | – | CEYDEEFFTALKRLRGGDICQYIQAKFQYLPALCIEEILDNLGCS (designed binder, N-term Biotin-PEG4; Kipr at 12; Kme3 at 26) [C304] | – |
| binds | – | – | CEYDEEFFTALKRLRGGDICQYIQAKFQYLPALCIEEILDNLGCS (designed binder, N-term Biotin-PEG4; Kme2 at 12; Kme3 at 26) [C303] | – |
| – | binds | binds | CEYDEEFFAGLKRLRGGDICYYIKKKFDKVPDLCIEEILDKLGC (designed binder, N-term acetyl) [C9] | binding (Murine Nectin-4 (mouse) [2]): binds; binding (Human Nectin-4 (human) [3]): binds |
| – | binds | binds | CEYDEEFFAGLKRLRGGDICYYIKKKFDKVPDLCIEEILDKLGC (designed binder, N-term DOTA-PEG4) [C12] | binding (Murine Nectin-4 (mouse) [6]): binds; binding (Human Nectin-4 (human) [7]): binds |
| – | binds | binds | CEYDEEFFAGLKRLRGGDICYYIKKKFDKVPDLCIEEILDKLGC (designed binder, N-term 138La-DOTA-PEG4) [C91] | binding (Murine Nectin-4 (mouse) [8]): binds; binding (Human Nectin-4 (human) [9]): binds |
